Where “and” joins values, the source holds several entries; their conditions need not be identical. Equal entries are not always repeated. Inconclusive results, whose numbers are uncertain, are shown with a selection of clear calls. A potency beside an inconclusive call is a rough fit, not a confirmed value. Some compounds were tested as several samples or in several runs, with calls that do not always agree. Calls of active or inactive are those of the source. Calls follow the shape of the dose curve; as a rule, active = well fitted inhibition curve with a large enough effect; inconclusive = small, poorly fitted or top-dose-only effect; inactive = flat fitted curve, though single readings scatter.
These compounds were tested against RecQ-like DNA helicase BLM (Homo sapiens) (UniProt P54132) (assay: qHTS for Inhibitors of Bloom's syndrome helicase (BLM): Helicase ATPase Orthogonal Confirmatory Assay for SAR). Conditions: purified BLM helicase ATPase activity assay; activity change, negative = inhibition: at 57.1 µM (top of the series).
Source text: Human RecQ DNA helicases participate in maintenance of genome stability and DNA repair. While other types of helicases have been explored as targets for drug development, members of the RecQ family have remained less well characterized. Mutations of the Bloom helicase gene have been associated with the rare human genetic disease called Bloom syndrome. […] Moreover, identified inhibitors can be used in cells and animal models to examine the consequences of inhibition on the survival of cancer cells where it has been shown that BLM plays an important role.
A fluorescence-based, biochemical assay in 1536 well format was developed to evaluate inhibition of BLM DNA unwinding activity. This assay was used to screen the MLPCN library. The resulting compounds were subjected to orthogonal and secondary biochemical assays to triage the initial hits, to classify compounds based on mode of action and to derive structure activity relationships (SARs) of candidate effectors. The data herein is the result of the Helicase ATPase orthogonal confirmatory assay. This luminescence assay employs a purified BLM enzyme and a single stranded BLM oligo substrate ([…]). For this assay increase in luminescence signal is greater than or equal to 700 RLU. Inhibition is the desired outcome for this assay.
NIH Chemical Genomics Center [NCGC]
NIH Molecular Libraries Probe Centers Network [MLPCN]
Assay Submitter (PI): Opher Gileadi, Structural Genomics Consortium, University of Oxford, UK
Three microliter of reaction buffer (25mM Tris-HCl pH 8.0, 50mM NaCl, 2mM MgCl2, 1mM DTT, and 0.01% Tween- 20, and 2nM BLM enzyme) was dispensed into a 1536-well assay plates (Greiner, solid white medium-binding) via Aurora Discovery BioRAPTR Flying Reagent Dispenser (FRD). Compounds (23nl each in columns 5-48) and control (23nl each in column 2 as dose-response) were transferred via a Kalypsys pintool equipped with a 1536-pin array. The plates were incubated for 15 min at room temperature followed by addition of 1 ul of substrates (200nM single-stranded oligonucleotide and 100uM ATP, final concentrations) to start the reaction. After 15 min., the reaction was terminated by the addition of 2.5ul of ADP-Glo Reagent I (Promega) to each well and incubation at room temperature for 30 min. Next, 5ul of ADP-Glo Reagent II (Promega) was added to each well. After 30 min at room temperature, the luminescence signal was detected using the ViewLux CCD imager. The data was normalized against no-inhibitor and no-enzyme controls and the resulting percent inhibition data were fitted to a sigmoidal dose response using a four-parameter Hill equation.

Protein sequences, listed by entry. Tags and fused reporters are not part of them. Lines headed by an entry give the natural chain unless they say otherwise; changes in a name come on top.
UniProt P54132: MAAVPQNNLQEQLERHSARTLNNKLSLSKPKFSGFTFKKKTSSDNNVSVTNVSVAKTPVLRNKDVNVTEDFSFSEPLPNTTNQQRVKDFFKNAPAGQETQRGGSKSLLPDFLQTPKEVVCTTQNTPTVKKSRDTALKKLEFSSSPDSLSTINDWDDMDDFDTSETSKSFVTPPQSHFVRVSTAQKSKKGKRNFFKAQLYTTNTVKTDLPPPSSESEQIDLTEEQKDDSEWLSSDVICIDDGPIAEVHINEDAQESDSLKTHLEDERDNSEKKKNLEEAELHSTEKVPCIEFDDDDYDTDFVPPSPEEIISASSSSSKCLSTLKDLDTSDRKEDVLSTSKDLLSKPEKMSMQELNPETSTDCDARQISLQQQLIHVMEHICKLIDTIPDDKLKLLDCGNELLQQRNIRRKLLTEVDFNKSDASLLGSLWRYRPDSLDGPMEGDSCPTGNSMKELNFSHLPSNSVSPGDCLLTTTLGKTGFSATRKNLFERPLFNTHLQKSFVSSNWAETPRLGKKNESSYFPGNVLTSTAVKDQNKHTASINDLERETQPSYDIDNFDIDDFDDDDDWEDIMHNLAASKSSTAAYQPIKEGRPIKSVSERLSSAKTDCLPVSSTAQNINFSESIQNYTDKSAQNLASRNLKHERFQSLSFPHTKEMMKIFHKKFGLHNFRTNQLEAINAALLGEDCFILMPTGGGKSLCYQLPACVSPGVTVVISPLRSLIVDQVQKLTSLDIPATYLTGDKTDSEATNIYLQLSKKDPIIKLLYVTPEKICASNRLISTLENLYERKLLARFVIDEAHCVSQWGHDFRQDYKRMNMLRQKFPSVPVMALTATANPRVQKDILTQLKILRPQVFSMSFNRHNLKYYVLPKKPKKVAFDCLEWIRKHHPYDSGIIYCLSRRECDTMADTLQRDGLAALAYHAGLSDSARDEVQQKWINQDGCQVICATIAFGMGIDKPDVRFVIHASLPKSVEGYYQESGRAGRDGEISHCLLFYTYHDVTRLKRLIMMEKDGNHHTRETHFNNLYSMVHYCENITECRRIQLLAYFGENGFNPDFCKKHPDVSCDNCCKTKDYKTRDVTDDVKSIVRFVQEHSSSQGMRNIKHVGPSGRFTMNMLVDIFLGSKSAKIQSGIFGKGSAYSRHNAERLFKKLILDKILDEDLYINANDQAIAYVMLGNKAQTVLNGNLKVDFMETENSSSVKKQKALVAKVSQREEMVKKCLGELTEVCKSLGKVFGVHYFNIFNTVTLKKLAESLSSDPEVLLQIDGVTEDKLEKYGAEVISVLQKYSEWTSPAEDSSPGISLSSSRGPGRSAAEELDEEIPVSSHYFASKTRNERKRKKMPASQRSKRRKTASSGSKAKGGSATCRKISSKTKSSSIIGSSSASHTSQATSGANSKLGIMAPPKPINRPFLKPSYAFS

SMILES | activity change, negative = inhibition | Potency
Cc1cc(NC(=O)Nc2nnc(-c3ccncc3)s2)ccc1F | inactive: -25.5% | 
O=C(Nc1ccc2ccccc2c1)Nc1nnc(C2CCCCC2)s1 | inactive: -8.14% | 
O=C(Nc1ccc(-c2cn[nH]c2)c(C(F)(F)F)c1)Nc1nnc(-c2ccncc2)s1 |  | inconclusive: 18.2 µM [inhibitor, partial curve, poor fit]
O=C(Nc1ccc(Cl)c(Cl)c1)Nc1nnc(-c2ccncc2)s1 |  | active: 6.46 µM
CCOc1ccc(NC(=O)Nc2ccc(-c3nc4ccccc4[nH]3)cc2)cc1 | inactive: -5.67% [at 114 µM] | 
O=C(Nc1ccc2c(c1)CCC2)Nc1nnc(-c2ccncc2)s1 |  | inconclusive: 10.2 µM [inhibitor, full curve]
N#Cc1cc(NC(=O)Nc2nnc(-c3ccncc3)s2)ccc1-c1cn[nH]c1 |  | active: 1.02 µM and active: 5.13 µM
O=C(Nc1ccc(Cl)c(C(F)(F)F)c1)Nc1cccc(-c2ccncc2)n1 |  | inconclusive: 20.4 µM [inhibitor, partial curve]
Cc1cc(NC(=O)Nc2cccc(-c3ccncc3)n2)ccc1Cl |  | inconclusive: 363 nM [inhibitor, full curve, poor fit] and inconclusive: 5.13 µM [inhibitor, full curve, poor fit]
O=C(Nc1ccc(F)c(C(F)(F)F)c1)Nc1nnc(-c2cccnc2)s1 |  | inconclusive: 22.9 µM [inhibitor, partial curve, poor fit]
Cc1cnccc1-c1nnc(NC(=O)Nc2ccc(F)c(C(F)(F)F)c2)s1 |  | inconclusive: 0.0513 µM [inhibitor, full curve, poor fit]
N#Cc1ccc(NC(=O)Nc2nnc(-c3ccncc3)s2)cc1 |  | inconclusive: 0.814 µM [inhibitor, full curve]
O=C(Nc1cc(F)cc(F)c1)Nc1nnc(-c2ccncc2)s1 | inactive: -9.82% | 
Nc1ccc(NC(=O)Nc2nnc(-c3ccncc3)s2)cc1C(F)(F)F | inactive: -7.21% | 
O=C(Nc1ccc(Cl)c(C(F)(F)F)c1)Nc1nnc(-c2cccnc2)s1 |  | inconclusive: 6.46 µM [inhibitor, full curve]
O=C(Nc1ccc(Cl)c([N+](=O)[O-])c1)Nc1nnc(C2CCCCC2)s1 | inactive: -4.88% | 
CN(C(=O)Nc1ccc2ccccc2c1)c1nnc(-c2ccncc2)s1 | inactive: -14.4% | 
Cc1cc(NC(=O)Nc2nnc(-c3ccncc3)s2)ccc1Br |  | inconclusive: 14.5 µM [inhibitor, full curve, poor fit]
O=C(Nc1ccc(Cl)c([N+](=O)[O-])c1)Nc1nnc(-c2ccncc2)s1 |  | active: 1.82 µM
CC(C)(C)c1ccc(-c2nnc(NC(=O)Nc3ccc4ccccc4c3)s2)cc1 | inactive: -5.07% | 

SMILES | activity change, negative = inhibition | Potency
O=C(Nc1ccc(Oc2ccccc2)cc1)Nc1nnc(-c2ccncc2)s1 | inactive: -13.1% | 
O=C(Nc1ccc2ccccc2c1)Nc1cccc(-c2ccncc2)n1 |  | inconclusive: 18.2 µM [inhibitor, partial curve]
O=C(Nc1ccc(F)nc1)Nc1nnc(-c2ccncc2)s1 |  | inconclusive: 20.4 µM [inhibitor, partial curve]
N/C(=N\c1nnc(-c2ccncc2)s1)Nc1ccc(F)c(C(F)(F)F)c1 |  | active: 20.4 µM
O=C(Nc1ccc(Cl)cc1)Nc1nnc(-c2ccncc2)s1 |  | inconclusive: 5.76 µM [inhibitor, partial curve]
N#Cc1ccc(NC(=O)Nc2nnc(-c3ccncc3)s2)c(Cl)c1 |  | inconclusive: 1.82 µM [inhibitor, partial curve, poor fit]
O=C(Nc1ccc(N2CCOCC2)c(F)c1)Nc1nnc(-c2ccncc2)s1 | inactive: 6.47% | 
O=C(Nc1ccc(Cl)nc1)Nc1nnc(-c2ccncc2)s1 |  | active: 1.62 µM
O=C(Nc1ccc(F)c(F)c1)Nc1nnc(-c2ccncc2)s1 |  | inconclusive: 4.08 µM [inhibitor, full curve]
N#CN/C(=N\c1nnc(-c2ccncc2)s1)Nc1ccc(F)c(C(F)(F)F)c1 | inconclusive: -29.1% [inhibitor] | 
O=C(Nc1ccc(Cl)c(Cl)c1)Nc1nnc(-c2cccnc2)s1 |  | inconclusive: 4.08 µM [inhibitor, full curve]
O=C(Nc1ccc(Br)c(Br)c1)Nc1cccc(-c2ccncc2)n1 |  | inconclusive: 0.913 µM [inhibitor, full curve]
COc1ccc(NC(=O)Nc2ccc(-c3nc4ccccc4[nH]3)cc2)cc1OC | inactive: -4.03% [at 114 µM] | 
O=C(Nc1ccc(-c2nc3ccccc3[nH]2)cc1)Nc1ccc2c(c1)CCCO2 | inactive: -2.96% [at 114 µM] | 
Cc1cc(NC(=O)Nc2nnc(-c3cccnc3)s2)ccc1Br |  | inconclusive: 12.9 µM [inhibitor, full curve, poor fit]
O=C(Nc1ccc2ccccc2c1)Nc1nnc(-c2cccnc2)s1 |  | inconclusive: 5.76 µM [inhibitor, full curve]
Cc1ccccc1-c1nnc(NC(=O)Nc2ccc3ccccc3c2)s1 | inactive: -2.23% | 
O=C(Cc1ccc2ccccc2c1)Nc1nnc(-c2ccncc2)s1 |  | active: 16.2 µM
O=C(Nc1ccc2ccccc2c1)Nc1nnc(-c2ccccc2)s1 | inactive: 0.431% | 
N/C(=N\c1nnc(-c2ccncc2)s1)Nc1ccc(Cl)c(Cl)c1 |  | inconclusive: 16.2 µM [inhibitor, partial curve]

Some of these compounds in order of molar mass, high to low.
SMILES | activity change, negative = inhibition | Potency
N#CN/C(=N\c1nnc(-c2ccncc2)s1)Nc1ccc(F)c(C(F)(F)F)c1 | inconclusive: -29.1% [inhibitor] | 
Cc1cnccc1-c1nnc(NC(=O)Nc2ccc(F)c(C(F)(F)F)c2)s1 |  | inconclusive: 0.0513 µM [inhibitor, full curve, poor fit]
O=C(Nc1ccc(Cl)c([N+](=O)[O-])c1)Nc1nnc(C2CCCCC2)s1 | inactive: -4.88% | 
CCOc1ccc(NC(=O)Nc2ccc(-c3nc4ccccc4[nH]3)cc2)cc1 | inactive: -5.67% [at 114 µM] | 
N/C(=N\c1nnc(-c2ccncc2)s1)Nc1ccc(Cl)c(Cl)c1 |  | inconclusive: 16.2 µM [inhibitor, partial curve]
N#Cc1ccc(NC(=O)Nc2nnc(-c3ccncc3)s2)c(Cl)c1 |  | inconclusive: 1.82 µM [inhibitor, partial curve, poor fit]
O=C(Nc1cc(F)cc(F)c1)Nc1nnc(-c2ccncc2)s1 | inactive: -9.82% | 
N#Cc1ccc(NC(=O)Nc2nnc(-c3ccncc3)s2)cc1 |  | inconclusive: 0.814 µM [inhibitor, full curve]
